Results are given in words; binding and its absence hold for the method and conditions named. For part of these data: Binding seen in cells or lysates may run through a third protein. Some entries that bind do so weakly or less than the wild type. For part of these data: Tags and fused reporters may be left off the sequences shown. Blank lines part the entries; values can stand above or below the binder they belong to.
Key:
[1] = target: T1, IPA1 fused with a HA tag (HA-IPA1) (rice (Oryza sativa L. subsp. japonica)) (UniProt Q7EXZ2); experiment: co-IP; HA-IPA1 and OsSAPK6-GFP co-expressed in rice protoplasts; extracts immunoprecipitated with anti-IPA1 monoclonal antibody, detected with anti-GFP
T1 sequence: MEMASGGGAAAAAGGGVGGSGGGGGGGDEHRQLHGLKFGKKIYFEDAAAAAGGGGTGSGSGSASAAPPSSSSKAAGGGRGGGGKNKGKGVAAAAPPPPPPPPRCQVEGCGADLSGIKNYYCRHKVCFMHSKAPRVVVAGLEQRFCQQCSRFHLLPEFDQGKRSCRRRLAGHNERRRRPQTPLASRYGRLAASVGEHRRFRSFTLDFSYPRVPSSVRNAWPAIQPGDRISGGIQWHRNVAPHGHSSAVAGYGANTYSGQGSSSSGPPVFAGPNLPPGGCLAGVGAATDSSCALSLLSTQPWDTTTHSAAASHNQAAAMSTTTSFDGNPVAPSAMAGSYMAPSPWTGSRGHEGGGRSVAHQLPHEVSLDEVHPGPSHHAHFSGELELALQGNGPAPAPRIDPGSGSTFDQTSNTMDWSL

[2] = target: T2, IPA1 in pGBKT7 (yeast two-hybrid bait) (rice (Oryza sativa L. subsp. japonica)) (UniProt Q7EXZ2); experiment: two-hybrid; Matchmaker GAL4-based Two-Hybrid System 3; OsSAPK6 in pGADT7, IPA1 in pGBKT7; yeast AH109; selection on -Leu/-Trp/-His/-Ade
T2 sequence: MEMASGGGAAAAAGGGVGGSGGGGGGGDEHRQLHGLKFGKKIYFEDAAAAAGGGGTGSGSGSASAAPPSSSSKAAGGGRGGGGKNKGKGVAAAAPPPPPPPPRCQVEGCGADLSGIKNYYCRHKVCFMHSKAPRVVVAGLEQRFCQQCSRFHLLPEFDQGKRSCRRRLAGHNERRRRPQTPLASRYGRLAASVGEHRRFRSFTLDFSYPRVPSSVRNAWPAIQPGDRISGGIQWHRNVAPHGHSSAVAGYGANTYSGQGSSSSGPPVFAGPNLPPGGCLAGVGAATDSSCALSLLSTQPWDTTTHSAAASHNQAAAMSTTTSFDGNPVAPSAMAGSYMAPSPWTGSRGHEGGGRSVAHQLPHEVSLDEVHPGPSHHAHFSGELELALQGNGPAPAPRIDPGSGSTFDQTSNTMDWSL

[3] = target: T3, OsSAPK6-CFP^N (rice (Oryza sativa L. subsp. japonica)) (UniProt Q6ZI44); experiment: split reporter; BiFC in rice leaf protoplasts; CFP^N and CFP^C fusions (puc-SCYNE, puc-SCYCE) co-expressed from 35S promoter, incubated in the dark overnight, confocal microscopy
T3 sequence: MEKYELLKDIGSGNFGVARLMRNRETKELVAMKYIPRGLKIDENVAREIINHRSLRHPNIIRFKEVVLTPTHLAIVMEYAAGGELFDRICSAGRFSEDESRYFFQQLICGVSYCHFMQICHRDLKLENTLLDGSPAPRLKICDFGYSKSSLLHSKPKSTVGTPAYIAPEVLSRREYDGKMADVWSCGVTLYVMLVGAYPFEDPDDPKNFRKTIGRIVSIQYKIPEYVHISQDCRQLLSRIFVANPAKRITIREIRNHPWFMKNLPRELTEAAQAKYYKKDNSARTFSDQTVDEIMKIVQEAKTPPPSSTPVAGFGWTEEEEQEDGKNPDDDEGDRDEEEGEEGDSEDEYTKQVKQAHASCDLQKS

binding [1]: binds
B1: OsSAPK6 fused with GFP (OsSAPK6-GFP) (enzyme, UniProt Q6ZI44 1-365)
chain: MEKYELLKDIGSGNFGVARLMRNRETKELVAMKYIPRGLKIDENVAREIINHRSLRHPNIIRFKEVVLTPTHLAIVMEYAAGGELFDRICSAGRFSEDESRYFFQQLICGVSYCHFMQICHRDLKLENTLLDGSPAPRLKICDFGYSKSSLLHSKPKSTVGTPAYIAPEVLSRREYDGKMADVWSCGVTLYVMLVGAYPFEDPDDPKNFRKTIGRIVSIQYKIPEYVHISQDCRQLLSRIFVANPAKRITIREIRNHPWFMKNLPRELTEAAQAKYYKKDNSARTFSDQTVDEIMKIVQEAKTPPPSSTPVAGFGWTEEEEQEDGKNPDDDEGDRDEEEGEEGDSEDEYTKQVKQAHASCDLQKS

binding [2]: binds
B2: OsSAPK6 in pGADT7 (yeast two-hybrid prey) (enzyme, UniProt Q6ZI44 1-365)
chain: MEKYELLKDIGSGNFGVARLMRNRETKELVAMKYIPRGLKIDENVAREIINHRSLRHPNIIRFKEVVLTPTHLAIVMEYAAGGELFDRICSAGRFSEDESRYFFQQLICGVSYCHFMQICHRDLKLENTLLDGSPAPRLKICDFGYSKSSLLHSKPKSTVGTPAYIAPEVLSRREYDGKMADVWSCGVTLYVMLVGAYPFEDPDDPKNFRKTIGRIVSIQYKIPEYVHISQDCRQLLSRIFVANPAKRITIREIRNHPWFMKNLPRELTEAAQAKYYKKDNSARTFSDQTVDEIMKIVQEAKTPPPSSTPVAGFGWTEEEEQEDGKNPDDDEGDRDEEEGEEGDSEDEYTKQVKQAHASCDLQKS

binding [3]: no binding
B3: IPA1^1–181-CFP^C (domain or fragment, UniProt Q7EXZ2 1-181)
chain: MEMASGGGAAAAAGGGVGGSGGGGGGGDEHRQLHGLKFGKKIYFEDAAAAAGGGGTGSGSGSASAAPPSSSSKAAGGGRGGGGKNKGKGVAAAAPPPPPPPPRCQVEGCGADLSGIKNYYCRHKVCFMHSKAPRVVVAGLEQRFCQQCSRFHLLPEFDQGKRSCRRRLAGHNERRRRPQTP

Source: article PMC9325753, “Chilling-induced phosphorylation of IPA1 by OsSAPK6 activates chilling tolerance responses in rice”
